In the experiment the target is T1, Flag-MKRN2, expressed in A498 cells (human) (UniProt Q9H000).
T1 sequence: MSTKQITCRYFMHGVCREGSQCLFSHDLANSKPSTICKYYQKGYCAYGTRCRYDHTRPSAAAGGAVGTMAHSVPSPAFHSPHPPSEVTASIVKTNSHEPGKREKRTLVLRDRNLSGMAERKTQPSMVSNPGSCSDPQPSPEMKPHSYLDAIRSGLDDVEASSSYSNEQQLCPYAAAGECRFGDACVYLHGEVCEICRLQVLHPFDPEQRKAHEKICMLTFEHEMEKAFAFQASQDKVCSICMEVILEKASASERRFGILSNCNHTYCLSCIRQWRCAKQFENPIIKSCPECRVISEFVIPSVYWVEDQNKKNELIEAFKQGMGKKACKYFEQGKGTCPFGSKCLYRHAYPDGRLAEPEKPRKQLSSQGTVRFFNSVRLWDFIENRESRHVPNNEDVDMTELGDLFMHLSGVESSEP
The experiment can be described thus: affinity purification with mass spectrometry; co-IP of Flag-MKRN2 against vector control from A498 cells; gel strips analysed by mass spectrometry.

By UniProt entry, the sequences of proteins in these tests, tags left out.
UniProt P30153: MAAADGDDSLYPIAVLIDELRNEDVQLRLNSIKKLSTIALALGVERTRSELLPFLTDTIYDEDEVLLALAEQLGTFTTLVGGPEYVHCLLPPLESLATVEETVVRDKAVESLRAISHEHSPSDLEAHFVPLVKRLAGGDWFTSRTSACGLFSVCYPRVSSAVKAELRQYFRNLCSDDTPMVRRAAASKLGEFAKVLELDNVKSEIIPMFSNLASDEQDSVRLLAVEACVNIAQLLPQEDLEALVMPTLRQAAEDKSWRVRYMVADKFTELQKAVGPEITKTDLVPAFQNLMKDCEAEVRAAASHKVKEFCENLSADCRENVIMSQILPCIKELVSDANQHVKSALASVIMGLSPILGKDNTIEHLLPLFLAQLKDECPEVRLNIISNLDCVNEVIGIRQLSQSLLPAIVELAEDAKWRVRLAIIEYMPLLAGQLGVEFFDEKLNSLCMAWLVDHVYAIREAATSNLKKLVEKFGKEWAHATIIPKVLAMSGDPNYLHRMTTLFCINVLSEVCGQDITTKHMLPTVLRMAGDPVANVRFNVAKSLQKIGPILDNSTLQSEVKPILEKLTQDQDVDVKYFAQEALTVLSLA
UniProt P67775: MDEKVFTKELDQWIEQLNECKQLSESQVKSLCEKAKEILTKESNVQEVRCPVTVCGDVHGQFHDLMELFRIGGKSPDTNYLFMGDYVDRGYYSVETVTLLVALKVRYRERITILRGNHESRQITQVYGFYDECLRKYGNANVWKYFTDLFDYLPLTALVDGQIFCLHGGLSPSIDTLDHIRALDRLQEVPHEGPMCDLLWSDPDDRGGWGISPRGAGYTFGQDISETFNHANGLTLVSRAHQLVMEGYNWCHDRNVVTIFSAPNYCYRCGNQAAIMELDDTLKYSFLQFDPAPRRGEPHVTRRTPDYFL

No constants are given. Whether binding was seen depends on the method and setting. In cells and extracts the contact can be indirect. Here binding means that the protein was enriched with, or labelled near, the bait; the list need not be complete. Sequences can lack the tags named with a protein.

Take “PPP2R1A, endogenous (from UniProt P30153 1-589)”: the binding entry is “binds”.
As for “Protein Phosphatase 2 Catalytic Subunit Alpha (PPP2CA), endogenous (from UniProt P67775 1-309)”, the entry is “binds”.
